Data set [1] deals with p65 (RelA), p65-containing NFkB in RAW264.7 nuclear extract (UniProt Q04207). The data set is described as follows: EMSA. The following applies: TonEBP siRNA, binding not affected; EMSA: 5 ug nuclear extract, Lightshift kit binding buffer, poly(dI:dC), room temperature 20 min; protein in an extract; label: 5' biotin. On the technique in general: Mobility shift assays separate free from complexed probe on a gel.

Amino acid sequences for entries named in this document (tags omitted). A change or cut given only in a name is not applied to a line headed by its entry.
UniProt Q04207, whole entry: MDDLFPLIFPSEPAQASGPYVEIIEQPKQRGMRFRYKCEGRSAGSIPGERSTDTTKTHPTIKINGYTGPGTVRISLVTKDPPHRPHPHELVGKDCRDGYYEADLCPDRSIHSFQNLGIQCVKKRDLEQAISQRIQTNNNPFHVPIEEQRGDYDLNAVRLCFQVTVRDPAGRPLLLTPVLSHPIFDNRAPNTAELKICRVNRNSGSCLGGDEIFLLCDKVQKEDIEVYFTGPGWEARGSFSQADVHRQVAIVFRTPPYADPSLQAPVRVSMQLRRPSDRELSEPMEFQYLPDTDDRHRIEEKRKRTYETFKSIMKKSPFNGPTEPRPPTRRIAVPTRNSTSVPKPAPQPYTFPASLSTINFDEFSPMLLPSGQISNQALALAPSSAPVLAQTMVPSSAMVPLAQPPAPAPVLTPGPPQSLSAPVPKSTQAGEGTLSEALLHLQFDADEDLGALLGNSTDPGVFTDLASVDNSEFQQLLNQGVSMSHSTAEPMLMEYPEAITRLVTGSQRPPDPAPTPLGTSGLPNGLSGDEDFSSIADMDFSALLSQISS
UniProt Q9WV30: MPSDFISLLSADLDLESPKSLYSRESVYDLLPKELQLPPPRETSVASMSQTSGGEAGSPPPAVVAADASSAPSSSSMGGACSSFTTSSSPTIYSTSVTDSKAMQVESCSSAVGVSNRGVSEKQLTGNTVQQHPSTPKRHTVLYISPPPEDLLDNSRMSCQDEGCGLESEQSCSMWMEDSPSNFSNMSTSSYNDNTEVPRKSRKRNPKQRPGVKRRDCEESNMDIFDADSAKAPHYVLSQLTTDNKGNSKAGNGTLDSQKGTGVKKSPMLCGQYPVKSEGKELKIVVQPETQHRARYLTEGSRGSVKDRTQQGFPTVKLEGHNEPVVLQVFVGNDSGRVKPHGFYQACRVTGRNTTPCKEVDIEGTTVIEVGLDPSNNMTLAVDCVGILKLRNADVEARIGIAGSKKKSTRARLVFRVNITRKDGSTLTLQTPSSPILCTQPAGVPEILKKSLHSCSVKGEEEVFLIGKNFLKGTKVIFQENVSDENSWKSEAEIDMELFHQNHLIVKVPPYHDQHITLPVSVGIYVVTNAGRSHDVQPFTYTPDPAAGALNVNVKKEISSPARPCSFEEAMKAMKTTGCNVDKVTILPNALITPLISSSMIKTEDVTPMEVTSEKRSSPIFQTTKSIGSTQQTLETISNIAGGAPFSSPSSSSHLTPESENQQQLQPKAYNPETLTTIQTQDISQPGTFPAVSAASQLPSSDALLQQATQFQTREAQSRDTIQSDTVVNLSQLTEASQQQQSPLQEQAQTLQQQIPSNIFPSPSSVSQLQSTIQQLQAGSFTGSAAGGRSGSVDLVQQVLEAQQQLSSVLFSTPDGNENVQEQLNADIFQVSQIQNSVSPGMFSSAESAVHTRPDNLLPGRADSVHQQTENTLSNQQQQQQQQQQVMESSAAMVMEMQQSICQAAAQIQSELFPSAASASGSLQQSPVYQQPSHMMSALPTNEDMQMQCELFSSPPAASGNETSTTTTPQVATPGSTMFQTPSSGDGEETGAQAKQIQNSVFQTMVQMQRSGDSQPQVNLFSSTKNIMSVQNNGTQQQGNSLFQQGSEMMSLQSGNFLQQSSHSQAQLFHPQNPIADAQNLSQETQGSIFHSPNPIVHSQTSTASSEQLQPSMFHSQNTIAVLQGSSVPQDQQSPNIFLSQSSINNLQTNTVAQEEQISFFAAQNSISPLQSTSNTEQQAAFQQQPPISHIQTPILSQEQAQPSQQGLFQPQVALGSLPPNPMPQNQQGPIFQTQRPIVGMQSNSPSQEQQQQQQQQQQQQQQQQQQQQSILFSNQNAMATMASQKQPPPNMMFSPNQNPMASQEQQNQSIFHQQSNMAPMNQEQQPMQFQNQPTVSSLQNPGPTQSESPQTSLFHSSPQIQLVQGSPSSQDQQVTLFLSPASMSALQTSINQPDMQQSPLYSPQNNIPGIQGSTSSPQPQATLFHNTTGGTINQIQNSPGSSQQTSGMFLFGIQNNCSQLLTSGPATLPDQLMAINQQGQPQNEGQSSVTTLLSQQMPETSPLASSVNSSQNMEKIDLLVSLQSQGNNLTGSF

For data set [2] the target is unchanged. The data set is described as follows: EMSA supershift. The following applies: EMSA: 5 ug nuclear extract, Lightshift kit binding buffer, poly(dI:dC), room temperature 20 min, protein in an extract, label: 5' biotin.
Data set [3] deals with p65 (RelA), p65-containing NFkB in RAW264.7 nuclear extract + TonEBP/NFAT5. As to the kind of experiment: DNA affinity pull-down. The conditions noted are these: LPS 1 h cell extract, TonEBP recruited indirectly via p65; DAPA: 4 mM Tris-HCl pH 7.5, 20 mM HEPES pH 7.5, 5% glycerol, 170 mM NaCl, 0.5 mM EDTA, 1 mM MgCl2, 0.1% Triton X-100, 30 nM probe, overnight; protein in an extract; label: 5' biotin.

The target of data set [4] is p65 (RelA), p65-containing NFkB in RAW264.7 nuclear extract (UniProt Q04207). As to the kind of experiment: DNA affinity pull-down. The following applies: DAPA: 4 mM Tris-HCl pH 7.5, 20 mM HEPES pH 7.5, 5% glycerol, 170 mM NaCl, 0.5 mM EDTA, 1 mM MgCl2, 0.1% Triton X-100, 30 nM probe, overnight, protein in an extract, label: 5' biotin.
In data set [5] the target is TonEBP/NFAT5 (UniProt Q9WV30). As to the kind of experiment: competition with a labelled probe. The conditions noted are these: EMSA: 5 ug nuclear extract, Lightshift kit binding buffer, poly(dI:dC), room temperature 20 min, protein in an extract, label: 5' biotin, unlabeled as competitor.
Data set [6] concerns the target TonEBP/NFAT5 (UniProt Q9WV30). As to the kind of experiment: EMSA. The conditions noted are these: EMSA: 5 ug nuclear extract, Lightshift kit binding buffer, poly(dI:dC), room temperature 20 min; protein in an extract; label: 5' biotin, unlabeled as competitor.
Data set [7] concerns the target TonEBP/NFAT5 (UniProt Q9WV30). As to the kind of experiment: EMSA supershift. The following applies: hypertonic (+75 mM NaCl, 24 h), TonEBP antiserum, competed by 50x cold T0; EMSA: 5 ug nuclear extract, Lightshift kit binding buffer, poly(dI:dC), room temperature 20 min; protein in an extract; label: 5' biotin.

The exact form of at least one protein or probe is not confirmed. Where cells or extracts were used, other partners may take part. For some of these results: Negatives hold for the conditions tested.

Results on 5 sequences are retold here after paper PMC4847014.

With “AAACAGGGGGCTTTCCCTCCTC (double strand) [N1 (kB site of TNFa promoter)]”, the binding result in data set [1] is recorded as “binds”; in data set [2] (LPS 1 h, p65 antibody, competed by 50x cold N1) it was “binds”; in data set [2] (cells pretreated with cerulenin, LPS, binding not affected), “binds”; in data set [3] it was “binds”; in data set [4] (LPS 1 h cell extract, immunoblot), “binds”; in data set [4] (TonEBP siRNA, binding not affected), “binds”.

As for “ACCAAGGAAGTTTTCCGAGGGTT (double strand) [T3 (putative TonE)]”, the binding result in the data set with TonEBP/NFAT5 [5] (50x unlabeled T3 against T0 probe) and with TonEBP/NFAT5 [6] was “no binding” each time.

As to “GCTCCGTGGAAAACTCACTTGG (double strand) [T1 (putative TonE)]”, the binding result with TonEBP/NFAT5 [5] (50x unlabeled T1 against T0 probe) and with TonEBP/NFAT5 [6] was “no binding” throughout.

Take “TCATAATGGAAAATTCCATGCCA (double strand) [T0 (TonE positive control)]”: the binding result with TonEBP/NFAT5 [7] is given as “binds”.

As for “TGTCCCCAACTTTCCAAACCCT (double strand) [T2 (putative TonE)]”, the binding result with TonEBP/NFAT5 [5] (50x unlabeled T2 against T0 probe) and in the data set with TonEBP/NFAT5 [6] was “no binding” throughout.
